Screening data

Data taken from PubChem BioAssay AID504749, deposited by NCATS (2011).

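Malaria parasite (P. falciparum) lines kept in red blood cells; parasite DNA is measured by SYBR Green fluorescence after lysis, 72 h after compound addition.
Each compound was titrated across a series from about 0.000037 to 29 µM.
The number is the fitted AC50, the concentration giving a half-maximal change in signal; a lower value means higher potency, whether the curve shows a decrease or an increase.
Calls follow the curve class and fit quality: every row here is inconclusive, covering signal-raising curves and weak, poorly fitted, partial or highest-dose-only inhibition curves.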

Values are in nM.
All entries here are filed as inconclusive.
Only part of the assay is shown, chiefly results filed as inconclusive.
Potencies fitted to partial, single-point or poorly fitting curves are rough.

- CN1CCC(=C2c3ccccc3CC(=O)c3sccc32)CC1 [TAB113] | potency 7080 nM (inhibitor, partial curve)
- CN1CCC(=C2c3ccccc3CC(=O)c3sccc32)CC1 [CP297] | potency 4256 nM (inhibitor, partial curve, poor fit)
- CN1CCC(=C2c3ccccc3CC(=O)c3sccc32)CC1 [PC26] | potency 2393 nM (inhibitor, partial curve)
- CN1CCC(=C2c3ccccc3CC(=O)c3sccc32)CC1 [N140] | potency 7943 nM (inhibitor, partial curve)
- CN1CCC(=C2c3ccccc3CC(=O)c3sccc32)CC1 [CP237] | potency 1995 nM (inhibitor, full curve, poor fit)
- CN1CCC(=C2c3ccccc3CC(=O)c3sccc32)CC1 [CP268] | potency 8492 nM (inhibitor, partial curve, poor fit)
- CN1CCC(=C2c3ccccc3CC(=O)c3sccc32)CC1 [SC27B] | potency 5012 nM (inhibitor, partial curve)
- CN1CCC(=C2c3ccccc3CC(=O)c3sccc32)CC1 [CP201] | potency 7569 nM (inhibitor, partial curve)
- CN1CCC(=C2c3ccccc3CC(=O)c3sccc32)CC1 [AA1029] | potency 8912 nM (inhibitor, partial curve)
- CN1CCC(=C2c3ccccc3CC(=O)c3sccc32)CC1 [CP194] | potency 7569 nM (inhibitor, partial curve)
- CN1CCC(=C2c3ccccc3CC(=O)c3sccc32)CC1 [CP335] | potency 6746 nM (inhibitor, partial curve, poor fit)
- CN1CCC(=C2c3ccccc3CC(=O)c3sccc32)CC1 [CP185] | potency 12589 nM (inhibitor, single point)
- CN1CCC(=C2c3ccccc3CC(=O)c3sccc32)CC1 [CP329] | potency 5358 nM (inhibitor, partial curve, poor fit)
- CN1CCC(=C2c3ccccc3CC(=O)c3sccc32)CC1 [3D7] | potency 15848 nM (inhibitor, single point)
- CN1CCC(=C2c3ccccc3CC(=O)c3sccc32)CC1 [CP305] | potency 6746 nM (inhibitor, partial curve, poor fit)
- CN1CCC(=C2c3ccccc3CC(=O)c3sccc32)CC1 [TAB165] | potency 3162 nM (inhibitor, partial curve)
- CN1CCC(=C2c3ccccc3CC(=O)c3sccc32)CC1 [CP325] | potency 9528 nM (inhibitor, partial curve, poor fit)

2 of the entries, repeated:

* CN1CCC(=C2c3ccccc3CC(=O)c3sccc32)CC1 [CP185] | potency 12589 nM (inhibitor, single point)
* CN1CCC(=C2c3ccccc3CC(=O)c3sccc32)CC1 [CP305] | potency 6746 nM (inhibitor, partial curve, poor fit)